This note sets out measurements from doi:10.1101/2022.05.18.492511.

Sequences of proteins named here, by UniProt entry; tags and fusion partners are left off.
UniProt P04198: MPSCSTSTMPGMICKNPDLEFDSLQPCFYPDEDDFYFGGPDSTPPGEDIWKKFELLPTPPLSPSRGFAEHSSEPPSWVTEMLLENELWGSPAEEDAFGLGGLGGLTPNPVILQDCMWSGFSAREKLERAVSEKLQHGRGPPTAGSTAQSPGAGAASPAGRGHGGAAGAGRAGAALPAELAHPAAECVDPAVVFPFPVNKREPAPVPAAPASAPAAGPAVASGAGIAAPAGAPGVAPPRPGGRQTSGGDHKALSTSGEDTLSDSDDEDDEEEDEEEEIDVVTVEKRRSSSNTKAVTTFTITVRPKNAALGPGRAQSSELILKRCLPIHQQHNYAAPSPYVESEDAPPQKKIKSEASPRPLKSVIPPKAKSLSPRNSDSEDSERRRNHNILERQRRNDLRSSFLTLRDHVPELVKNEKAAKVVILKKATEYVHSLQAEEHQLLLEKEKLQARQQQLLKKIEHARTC
UniProt P61244: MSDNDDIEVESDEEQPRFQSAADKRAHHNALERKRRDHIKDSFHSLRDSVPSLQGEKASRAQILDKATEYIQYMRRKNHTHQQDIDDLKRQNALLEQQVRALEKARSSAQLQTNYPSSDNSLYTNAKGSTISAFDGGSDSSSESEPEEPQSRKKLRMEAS

For experiment [1], the target named is MYCN (human (endogenous in IMR32 and NBLS)) (UniProt P04198). In words: co-IP.
Experiment [2] has the same target. In words: co-IP. The source holds these as a separate data set.

Like-named read-outs stand apart in the source and are kept apart here. No constants are given. Whether binding was seen depends on the method and setting. Binding seen in cells or lysates may run through a third protein. Some results given as binding are weak or reduced against the parent protein; the word gives no strength.

For the molecule MAX (from UniProt P61244 1-160), the binding entry in experiment [1] and in experiment [2] was “binds” in each case.

B1: TBX2 (protein, UniProt Q13207 1-712)
chain: MREPALAASAMAYHPFHAPRPADFPMSAFLAAAQPSFFPALALPPGALAKPLPDPGLAGAAAAAAAAAAAAEAGLHVSALGPHPPAAHLRSLKSLEPEDEVEDDPKVTLEAKELWDQFHKLGTEMVITKSGRRMFPPFKVRVSGLDKKAKYILLMDIVAADDCRYKFHNSRWMVAGKADPEMPKRMYIHPDSPATGEQWMAKPVAFHKLKLTNNISDKHGFTILNSMHKYQPRFHIVRANDILKLPYSTFRTYVFPETDFIAVTAYQNDKITQLKIDNNPFAKGFRDTGNGRREKRKQLTLPSLRLYEEHCKPERDGAESDASSCDPPPAREPPTSPGAAPSPLRLHRARAEEKSCAADSDPEPERLSEERAGAPLGRSPAPDSASPTRLTEPERARERRSPERGKEPAESGGDGPFGLRSLEKERAEARRKDEGRKEAAEGKEQGLAPLVVQTDSASPLGAGHLPGLAFSSHLHGQQFFGPLGAGQPLFLHPGQFTMGPGAFSAMGMGHLLASVAGGGNGGGGGPGTAAGLDAGGLGPAASAASTAAPFPFHLSQHMLASQGIPMPTFGGLFPYPYTYMAAAAAAASALPATSAAAAAAAAAGSLSRSPFLGSARPRLRFSPYQIPVTIPPSTSLLTTGLASEGSKAAGGNSREPSPLPELALRKVGAPSRGALSPSGSAKEAANELQSIQRLVSGLESQRALSPGRESPK
On to B1, for which the binding entry in experiment [1] and in experiment [2] was “binds” in each case.
